Patent US8709981B2, “Isolated Australian coral reef fluorescent proteins and cell-based kinase or phosphatase platforms for cancer drug development” (priority 2009, dated 2014)

Test system: HEK-293 cells
Assay: Expression in mammalian cells
Format: cell-based

B1: PhosFluor: fluorescent protein having the amino acid sequence set forth in SEQ ID NO: 10, isolated from Scleractinia (protein)
chain: MSAHIKPNMKIKLRMEGDVNGHPFVITGEGSGKPYEGTHAIDLKVKEGGPLPFAYDILTAAFQYGNRAFTKYPADIPDYFKQSFPDGYCWERSMVFEDQGICVVKSVISLDKKEPDCFNYDIRFYGVNFPATGPVMKKKTVKWEPSTQTMYERDGVLVGDVNMALLLEGGGHHRCDFKSTYRAKGVVLNMPGNHYVDHRIEIIHHDKGYNSVTVHESAEARHCSLPSKAK
modifications: Scleractinia sp
- stable expression in HEK-293 cells (cells selected for stable transfection, 3 weeks later): still stably expressed
- fluorescence in HEK-293 cells (five days post-transfection): Fluorescence was observed
